Earlier results as cited in patent US20230355644A1, “ACTIVE INGREDIENTS AND DRUGS FOR THE THERAPY OF VIRAL DISEASES, ESPECIALLY CORONA INFECTIONS, ESPECIALLY COVID-19” (Creative Therapeutics GmbH, priority 2020, published 2023).
For at least one compound, name, drawing or mass did not settle the structure.

System: COVID-19
Conditions: patients who do not require oxygen administration; cited from earlier work

C[C@@H]1C[C@H]2[C@@H]3CCC4=CC(=O)C=C[C@]4(C)[C@@]3(F)[C@@H](O)C[C@]2(C)[C@@]1(O)C(=O)CO [dexamethasone]
effect of treatment: no positive effect
